No constants are given. Whether binding was seen depends on the method and setting. In cells and extracts the contact can be indirect. Some results given as binding are weak or reduced against the parent protein; the word gives no strength.

By UniProt entry, the sequences of proteins in these tests, tags left out. Residues count along the entry.
UniProt Q03145, residues 26-977: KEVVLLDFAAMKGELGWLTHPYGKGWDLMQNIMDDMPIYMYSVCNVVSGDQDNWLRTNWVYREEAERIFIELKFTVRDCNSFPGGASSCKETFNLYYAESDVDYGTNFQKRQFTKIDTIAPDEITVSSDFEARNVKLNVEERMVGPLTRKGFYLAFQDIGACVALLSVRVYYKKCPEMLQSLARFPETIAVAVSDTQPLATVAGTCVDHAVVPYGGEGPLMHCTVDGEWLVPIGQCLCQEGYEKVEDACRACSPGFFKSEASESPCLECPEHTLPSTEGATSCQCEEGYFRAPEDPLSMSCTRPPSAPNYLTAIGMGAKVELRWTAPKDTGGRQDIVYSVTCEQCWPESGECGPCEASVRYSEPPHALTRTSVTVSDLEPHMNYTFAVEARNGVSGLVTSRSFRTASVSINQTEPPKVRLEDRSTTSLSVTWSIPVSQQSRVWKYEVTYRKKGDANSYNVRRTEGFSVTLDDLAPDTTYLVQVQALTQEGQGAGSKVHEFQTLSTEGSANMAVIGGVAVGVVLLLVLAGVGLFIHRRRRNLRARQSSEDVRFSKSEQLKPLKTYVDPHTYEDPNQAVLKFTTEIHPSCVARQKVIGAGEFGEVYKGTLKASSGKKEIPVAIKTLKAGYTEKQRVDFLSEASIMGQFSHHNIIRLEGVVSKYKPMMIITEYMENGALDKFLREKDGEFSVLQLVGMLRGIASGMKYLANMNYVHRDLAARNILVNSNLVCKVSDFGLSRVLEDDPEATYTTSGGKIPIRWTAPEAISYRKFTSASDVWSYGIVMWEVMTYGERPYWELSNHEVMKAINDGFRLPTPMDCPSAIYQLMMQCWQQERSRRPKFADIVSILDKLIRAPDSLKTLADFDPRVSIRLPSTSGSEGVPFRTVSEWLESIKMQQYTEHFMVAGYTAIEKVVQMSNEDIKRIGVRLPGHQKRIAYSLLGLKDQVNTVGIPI

Among the data in PMC10643436 are binding values, retold here.

This assay deals with EphA2 (UniProt Q03145). In words: co-IP; Exo group compared with Exo+EphA2 group (exosomes from MC3T3-E1 cells with or without EphA2 overexpression); done both ways (EphA2-EphrinA2 and EphrinA2-EphA2); no co-IP protocol in the methods.

B1: EphrinA2 (ligand, UniProt P52801 21-184)
chain: RNEDPARANADRYAVYWNRSNPRFQVSAVGDGGGYTVEVSINDYLDIYCPHYGAPLPPAERMERYILYMVNGEGHASCDHRQRGFKRWECNRPAAPGGPLKFSEKFQLFTPFSLGFEFRPGHEYYYISATPPNLVDRPCLRLKVYVRPTNETLYEAPEPIFTSN
Turning to B1, the binding result was “binds”.
